Values from PubChem BioAssay AID1259425 (University of Nebraska Medical Center, 2018).
Purpose: 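Find knockdowns that reproduce the gene expression pattern seen when KSR1 is lost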 (primary screen). Cell system: HCT116 human colon cancer cells. Knock-down reagent: siRNA pool against human genes, 50 nM siRNA. Measured: 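mRNA of six signature genes measured together by branched-DNA assay after 50 nM siRNA pool, blank removed, divided by geometric mean of two housekeeping genes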. Reading the numbers: BNIP3L mRNA: higher = more BNIP3L transcript after knockdown; NDRG1 mRNA: higher = more NDRG1 transcript after knockdown; BNIP3 mRNA: higher = more BNIP3 transcript after knockdown; ALDOC mRNA: higher = more ALDOC transcript after knockdown; ACSL5 mRNA: higher = more ACSL5 transcript after knockdown.
Here is an unselected part of about 14,000 deposited reagents. The numbers tell different reagents against one gene apart. Not given: the time to read-out.

| Gene | reagent no. | BNIP3L mRNA, set 1 | NDRG1 mRNA, set 1 | BNIP3 mRNA, set 1 | ALDOC mRNA, set 1 | ACSL5 mRNA, set 1 |
| --- | --- | --- | --- | --- | --- | --- |
| CHM (CHM Rab escort protein) | 1 | 0.036 | 0.102 | 0.191 | 0.0193 | 0.0944 |
| CHM (CHM Rab escort protein) | 2 | 0.0535 | 0.231 | 0.342 | 0.0133 | 0.126 |
| ING3 (inhibitor of growth family member 3) | 1 | 0.0486 | 0.164 | 0.121 | 0.0187 | 0.253 |
| PDE1B (phosphodiesterase 1B) | 1 | 0.143 | 0.136 | 0.224 | 0.0348 | 0.057 |
| GLRA1 (glycine receptor alpha 1) | 1 | 0.0545 | 0.228 | 0.269 | 0.0197 | 0.16 |
| SLC5A3 | 1 | 0.0454 | 0.216 | 0.248 | 0.0241 | 0.146 |
| G6PC1 (glucose-6-phosphatase catalytic subunit 1) | 1 | 0.0912 | 0.186 | 0.337 | -0.00535 | 0.266 |
| GSTM2 (glutathione S-transferase mu 2) | 1 | 0.148 | 0.219 | 0.397 | 0.0324 | 0.288 |
| TMEM208 (transmembrane protein 208) | 1 | 0.0971 | 0.405 | 0.397 | 0.0553 | 0.137 |
| CBR1 (carbonyl reductase 1) | 1 | 0.0459 | 0.162 | 0.299 | 0.037 | 0.144 |
| PEX11A (peroxisomal biogenesis factor 11 alpha) | 1 | 0.0625 | 0.112 | 0.258 | 0.0184 | 0.158 |
| ATG13 (autophagy related 13) | 1 | 0.111 | 0.183 | 0.38 | 0.012 | 0.124 |
| PPP3CA (protein phosphatase 3 catalytic subunit alpha) | 1 | 0.0831 | 0.282 | 0.281 | 0.0391 | 0.159 |
| UPK1B (uroplakin 1B) | 1 | 0.0877 | 0.118 | 0.2 | 0.0308 | 0.103 |
| SIK2 (salt inducible kinase 2) | 1 | 0.0657 | 0.0746 | 0.295 | 0.0164 | 0.246 |
| SYT15 (synaptotagmin 15) | 1 | 0.431 | 0.338 | 0.397 | 0.175 | 0.501 |
| TRMT2B (tRNA methyltransferase 2B) | 1 | 0.189 | 0.206 | 0.352 | 0.0236 | 0.214 |
| NUDT9 (nudix hydrolase 9) | 1 | 0.287 | 0.202 | 0.302 | 0.0572 | 0.122 |
| SNAPC5 (small nuclear RNA activating complex polypeptide 5) | 1 | 0.0765 | 0.182 | 0.18 | 0.0149 | 0.0896 |
| VWA8 (von Willebrand factor A domain containing 8) | 1 | 0.0705 | 0.355 | 0.257 | 0.0106 | 0.151 |
| PRG3 (proteoglycan 3, pro eosinophil major basic protein 2) | 1 | 0.0822 | 0.0987 | 0.292 | 0.0125 | 0.103 |
| PRDM10 (PR/SET domain 10) | 1 | 0.166 | 0.222 | 0.415 | 0.0335 | 0.295 |
| PLA2G12A (phospholipase A2 group XIIA) | 1 | 0.185 | 0.297 | 0.372 | 0.0446 | 0.311 |
| PRX (periaxin) | 1 | 0.0563 | 0.0612 | 0.206 | 0.00929 | 0.136 |
| FRRS1L (ferric chelate reductase 1 like) | 1 | 0.443 | 0.403 | 1.01 | 0.123 | 0.19 |
| USP28 (ubiquitin specific peptidase 28) | 1 | 0.0559 | 0.168 | 0.187 | 0.0146 | 0.0882 |
| ZNF14 (zinc finger protein 14) | 1 | 0.127 | 0.0748 | 0.301 | 0.0209 | 0.164 |
| FNDC11 (fibronectin type III domain containing 11) | 1 | 0.228 | 0.251 | 0.367 | 0.0549 | 0.313 |
| ALAD (aminolevulinate dehydratase) | 1 | 0.175 | 0.916 | 0.505 | 0.0239 | 0.24 |
| OXCT1 (3-oxoacid CoA-transferase 1) | 1 | 0.0954 | 0.142 | 0.216 | 0.0159 | 0.124 |
| CTDP1 (CTD phosphatase 1) | 1 | 0.0539 | 0.136 | 0.22 | 0.0271 | 0.165 |
| RAG2 (recombination activating 2) | 1 | 0.124 | 0.278 | 0.384 | 0.0621 | 0.148 |
| ADH6 (alcohol dehydrogenase 6 (class V)) | 1 | 0.158 | 0.108 | 0.288 | 0.0503 | 0.234 |
| AKAP10 (A-kinase anchoring protein 10) | 1 | 0.0627 | 0.176 | 0.307 | 0.0268 | 0.182 |
| SETD5 (SET domain containing 5) | 1 | 0.101 | 0.642 | 0.244 | 0.0453 | 0.205 |
| CHST5 (carbohydrate sulfotransferase 5) | 1 | 0.189 | 0.701 | 0.674 | 0.0446 | 0.38 |
| WNK1 (WNK lysine deficient protein kinase 1) | 1 | 0.0572 | 0.176 | 0.272 | 0.00414 | 0.515 |
| DGKG (diacylglycerol kinase gamma) | 1 | 0.0451 | 0.0582 | 0.199 | 0.00309 | 0.132 |
| ITFG1 (integrin alpha FG-GAP repeat containing 1) | 1 | 0.101 | 0.4 | 0.193 | 0.041 | 0.393 |
| C4BPA (complement component 4 binding protein alpha) | 1 | 0.0992 | 0.283 | 0.267 | 0.0241 | 0.098 |
| RPS20 (ribosomal protein S20) | 1 | 0.0631 | 0.187 | 0.281 | 0.0153 | 0.133 |
| FUT6 (fucosyltransferase 6) | 1 | 0.175 | 0.209 | 0.315 | 0.0498 | 0.071 |
| MAP4K2 (mitogen-activated protein kinase kinase kinase kinase 2) | 1 | 0.289 | 0.0994 | 0.163 | 0.0164 | 0.41 |
| CCNB1IP1 (cyclin B1 interacting protein 1) | 1 | 0.0828 | 0.257 | 0.487 | 0.0665 | 0.0662 |
| MFF (mitochondrial fission factor) | 1 | 0.113 | 0.304 | 0.296 | 0.0631 | 0.209 |
| LMAN1L (lectin, mannose binding 1 like) | 1 | 0.175 | 0.718 | 0.374 | 0.0545 | 0.178 |
| COL4A5 (collagen type IV alpha 5 chain) | 1 | 0.0949 | 0.308 | 0.343 | 0.0472 | 0.247 |
| MTTP (microsomal triglyceride transfer protein) | 1 | 0.114 | 0.0961 | 0.268 | 0.018 | 0.0942 |
| SRPRB (SRP receptor subunit beta) | 1 | 0.107 | 0.0758 | 0.406 | 0.0346 | 0.155 |
| DHPS (deoxyhypusine synthase) | 1 | 0.0981 | 0.138 | 0.314 | 0.017 | 0.123 |
| ZBTB2 (zinc finger and BTB domain containing 2) | 1 | 0.202 | 0.691 | 0.54 | 0.0488 | 0.0887 |
| KPNA1 (karyopherin subunit alpha 1) | 1 | 0.139 | 0.161 | 0.319 | 0.0654 | 0.145 |
| DOT1L (DOT1 like histone lysine methyltransferase) | 1 | 0.113 | 0.192 | 0.215 | 0.0166 | 0.196 |
| SIGLEC12 (sialic acid binding Ig like lectin 12) | 1 | 0.113 | 0.111 | 0.32 | 0.0274 | 0.272 |
| TUT7 (terminal uridylyl transferase 7) | 1 | 0.133 | 0.314 | 0.365 | 0.0648 | 0.297 |
| KIAA0753 | 1 | 0.103 | 0.23 | 0.309 | 0.0523 | 0.191 |
| COL4A3 (collagen type IV alpha 3 chain) | 1 | 0.112 | 0.183 | 0.291 | 0.0554 | 0.0795 |
| AHCTF1 (AT-hook containing transcription factor 1) | 1 | 0.0878 | 0.562 | 0.247 | 0.0281 | 0.142 |
| ATXN7L3 (ataxin 7 like 3) | 1 | 0.272 | 0.337 | 0.329 | 0.0704 | 0.329 |
| MED13 (mediator complex subunit 13) | 1 | 0.0998 | 0.156 | 0.257 | 0.0402 | 0.101 |
| PRMT6 (protein arginine methyltransferase 6) | 1 | 1.11 | 1.66 | 3.41 | 0.395 | 0.113 |
| TFE3 (transcription factor binding to IGHM enhancer 3) | 1 | 0.0887 | 0.0708 | 0.233 | 0.00941 | 0.159 |
| ACP5 (acid phosphatase 5, tartrate resistant) | 1 | 0.0592 | 0.429 | 0.232 | 0.0442 | 0.131 |

Sorted by “ALDOC mRNA, set 1” (descending): some entries from above
| Gene | reagent no. | BNIP3L mRNA, set 1 | NDRG1 mRNA, set 1 | BNIP3 mRNA, set 1 | ALDOC mRNA, set 1 | ACSL5 mRNA, set 1 |
| --- | --- | --- | --- | --- | --- | --- |
| SYT15 (synaptotagmin 15) | 1 | 0.431 | 0.338 | 0.397 | 0.175 | 0.501 |
| NUDT9 (nudix hydrolase 9) | 1 | 0.287 | 0.202 | 0.302 | 0.0572 | 0.122 |
| TRMT2B (tRNA methyltransferase 2B) | 1 | 0.189 | 0.206 | 0.352 | 0.0236 | 0.214 |
| SNAPC5 (small nuclear RNA activating complex polypeptide 5) | 1 | 0.0765 | 0.182 | 0.18 | 0.0149 | 0.0896 |
